Laboratory results: patent US9415009B2 (Pearl Therapeutics, Inc., priority 2009, dated 2016)
For at least one compound, name, drawing or mass did not settle the structure.

Assay: Particle size distribution by laser diffraction (Sympatec, Fraunhofer mode)
Type: physicochemical
Details: micronized active agent particles

CCCC1O[C@@H]2C[C@H]3[C@@H]4CCC5=CC(=O)C=C[C@]5(C)[C@H]4[C@@H](O)C[C@]3(C)[C@]2(C(=O)CO)O1 (stereo partly drawn) [BD, 16,17-(butylidenebis(oxy))-11,21-dihydroxy-, (11-β,16-α)-pregna-1,4-diene-3,20-dione]
optical diameter that 50% by volume of the micronized particles are smaller than: 1.9 μm | optical diameter that 90% by volume of the micronized particles are smaller than: 4.3 μm
